PubChem BioAssay AID1259424, University of Nebraska Medical Center, 2018

Screen: 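Seek colon cancer survival genes behaving like KSR1, using a six-gene signature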 (primary screen)
Cell system: human HCT116 colon cancer cells
Knock-down reagent: siRNA pool against human genes, 50 nM
Measured: 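Six signature mRNAs by branched-DNA multiplex assay, scaled to two housekeeping genes and non-targeting median, log2; matched to mean KSR1 knockdown profile by Pearson correlation and euclidean distance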
Direction: mean correlation with KSR1 profile and KSR1 correlation: higher = expression change more like KSR1 knockdown; mean distance from KSR1 profile: higher = expression change less like KSR1 knockdown
The whole screen tested about 14,000 reagents; below is a part drawn at random. 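Higher correlation or smaller distance means closer resemblance to KSR1 loss; control wells, including KSR1 knockdowns, recur on many plates.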 Some reagents were tested in more than one well and are listed for each. No sequences are given here. The record does not give: the time to read-out.

Gene,mean correlation with KSR1 profile,mean distance from KSR1 profile,"KSR1 correlation, replicate 1","KSR1 correlation, replicate 2","KSR1 correlation, replicate 3"
MRPL42,-0.612,2.05,-0.6,-0.482,-0.865
MAP1LC3B,-0.016,2.21,-0.172,-0.179,-0.162
PTPN3,-0.465,1.46,-0.0685,-0.645,-0.46
FOLH1B,0.304,2.04,0.309,0.309,0.291
PPME1,-0.131,1.6,-0.362,0.066,-0.127
KAT6A,0.367,1.22,0.467,-0.053,0.431
JADE3,-0.117,3.57,0.0194,-0.19,-0.109
SIX2,-0.0577,3.01,0.109,-0.113,0.0798
TMEM106C,0.178,1.56,-0.146,0.0475,0.224
ABCA3,-0.2,4.19,-0.134,-0.266,-0.299
RIMBP2,-0.0308,2.57,0.143,-0.126,-0.0995
XCL1,-0.252,3.4,0.0481,-0.491,-0.365
DNA2,-0.0715,3.3,-0.0899,-0.0641,-0.227
SPI1,0.473,4.34,0.571,0.558,0.409
CLDN3,0.0692,3.97,0.0504,0.107,-0.0351
SLC30A1,0.13,1.67,0.157,0.235,-0.0632
RABGAP1,-0.286,1.47,0.0957,-0.534,-0.235
RABGAP1,0.418,1.52,0.538,0.347,0.353
GRN,-0.22,2.4,-0.372,-0.32,-0.134
CASP8AP2,-0.501,3.11,-0.412,-0.452,-0.577
PPP1R26,-0.381,3.95,-0.146,-0.572,-0.377
TECTB,-0.205,3.45,-0.363,-0.19,-0.0538
EGR4,0.787,0.757,0.708,0.498,0.839
UBE2S,-0.0283,2,0.302,-0.0898,-0.399
VASH2,-0.238,2.75,-0.149,-0.144,-0.292
LGI1,-0.378,2.39,-0.404,-0.64,-0.491
HOXA11,0.728,2.3,0.737,0.698,0.736
KRT19,-0.306,1.78,-0.134,-0.4,-0.3
LTBP3,0.194,1.01,0.168,0.186,-0.314
PCDHAC2,0.152,1.86,0.137,0.188,-0.246
TAF1D,-0.203,2.2,-0.0257,-0.287,-0.344
CKMT2,0.554,1.31,0.609,0.748,-0.232

Individual results from above.
Under “mean distance from KSR1 profile”, PTPN3 reads 1.46
Entry for PPP1R26 in “KSR1 correlation, replicate 2”: -0.572
Entry for KAT6A in “KSR1 correlation, replicate 3”: 0.431
Result of DNA2 under “KSR1 correlation, replicate 3”: -0.227

The results go on:
Gene,mean correlation with KSR1 profile,mean distance from KSR1 profile,"KSR1 correlation, replicate 1","KSR1 correlation, replicate 2","KSR1 correlation, replicate 3"
CRYGD,0.292,1.14,0.196,0.389,0.142
VPS72,-0.513,2.16,-0.559,0.0279,-0.5
SMPD3,0.307,2.22,0.423,0.149,0.254
RAPGEF6,-0.0683,5.26,0.2,0.0741,0.0129
ZNF706,-0.0882,1.24,-0.364,0.26,0.169
ATR,0.452,1.62,0.536,0.278,0.224
EXOC6B,-0.473,2.58,-0.447,-0.27,-0.503
TPR,-0.679,2.09,-0.634,-0.528,-0.747
CA3,0.148,1.29,0.135,0.147,0.00325
HK3,0.681,0.975,0.854,0.657,0.133
IFRD1,-0.42,2.45,-0.542,-0.415,-0.461
TBC1D29P,-0.653,2.69,-0.579,-0.552,-0.512
CLGN,-0.321,3.12,-0.356,-0.513,0.0947
PCDHGA2,-0.00306,1.21,-0.473,-0.0436,0.0486
IMMP2L,0.767,2.97,0.636,0.76,0.784
KCNF1,-0.418,2.52,-0.406,-0.521,-0.0468
KLF5,-0.0497,1.64,0.571,0.0717,-0.338
ARG2,-0.804,4.72,-0.842,-0.784,-0.816
USP42,-0.122,1.27,-0.057,-0.484,0.171
BUB1B,-0.166,2.55,-0.00393,-0.357,-0.383
CASP8,-0.236,1.52,-0.159,-0.121,-0.49
PROC,0.0407,1.94,-0.0899,0.0217,0.169
NPIPB3,-0.459,1.84,-0.555,-0.00329,-0.655
BMX,0.739,2.24,0.775,0.742,0.444
SUB1,0.174,2.38,0.113,0.324,0.348
PRPF8,0.291,1.91,-0.44,0.393,0.0307
EML1,0.235,1.88,-0.014,-0.00824,0.362
FAHD2B,-0.267,2.67,-0.228,-0.377,-0.228
NGF,0.346,1.59,0.372,0.375,0.407
PSAP,0.255,1.68,0.191,0.485,0.358
ID2,-0.688,3.47,-0.738,-0.796,-0.806
